Source: PubChem BioAssay AID1508597 (Cure First, 2020)
This is an unselected part of the about 2,100 reagents, under one of the conditions tested. 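Calls flag viability under 80% in either arm, not effects specific to rucaparib; the reference for percent is not stated.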 A reagent listed more than once was tested more than once; the source does not tell the runs apart. Reagent sequences are not shown. Not stated in the record: the 100% reference.

Aim: 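Knock-downs altering ovarian cancer cell survival with or without PARP inhibitor rucaparib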 (primary screen)
System: human ovarian carcinoma lines grown from tumours: OCI-P5x (papillary serous) and OCI-C5x (clear cell)
Reagent: siRNA pool against human genes, 1.25 pmol siRNA per well
Time to read-out: 72 h or 96 h, depending on the cell culture
Treatment: rucaparib 20 µM (about IC30) or vehicle, present until read-out
Rucaparib or vehicle: Vehicle
Cell line: OCI-P5x (serous)
Detection: 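Luminescent ATP-based viability assay read 72 or 96 h after transfection, depending on culture, given as normalised percent viability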
Reading the numbers: viability, normalised: higher = more viable cells remaining
Hit rule: 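a well counts as a hit if its normalised viability is under 80 percent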
Calls: active = viability under 80%; inactive = viability 80% or more

For MAP3K15, technical replicate 1, the entry reads viability, normalised (%) = 75.3; active.
For MAP3K15, technical replicate 2, the entry reads viability, normalised (%) = 64.8; active.
MAP3K15, technical replicate 3 showed viability, normalised (%) = 71.1; active.
With PRKCG, technical replicate 1 the deposit lists viability, normalised (%) = 79.6; active.
PRKCG, technical replicate 2 gave viability, normalised (%) = 82.7; inactive.
With PRKCG, technical replicate 3 the deposit lists viability, normalised (%) = 86.2; inactive.
For GSK3B, technical replicate 1 the deposit lists viability, normalised (%) = 88.7; inactive.
GSK3B, technical replicate 1 scored viability, normalised (%) = 63.6; active.
For GSK3B, technical replicate 2, the values are viability, normalised (%) = 40.4; active.
With GSK3B, technical replicate 2, the entry reads viability, normalised (%) = 72.9; active.
GSK3B, technical replicate 3 scored viability, normalised (%) = 89.5; inactive.
With GSK3B, technical replicate 3, the values are viability, normalised (%) = 63.7; active.

Look-ups from the entries so far:
Under “activity call”, MAP3K15, technical replicate 3 is entered as active
Result of PRKCG, technical replicate 3 under “activity call”: inactive
